Laboratory results from US20200306295A1, “METHOD AND DEVICE FOR ANNIHILATION OF Staphylococcus aureus” (priority 2017, published 2020).
Some entries share one result that the patent states for a list of compounds.

System: stationary-phase MRSA
Test: Post-antibiotic effect assay
Format: cell-based, S. aureus
Settings: 4×MIC for one hour

SMILES	post-antibiotic effect
CC1COc2c(N3CCN(C)CC3)c(F)cc3c(=O)c(C(=O)O)cn1c23 (centres unmarked) [Ofloxacin, ofloxacin]	< 1 h
Cc1onc(-c2ccccc2)c1C(=O)N[C@@H]1C(=O)N2[C@@H]1SC(C)(C)[C@@H]2C(=O)O [Oxacillin, oxacillin]	< 1 h
